Earlier results as cited in patent publication US5122381A, “Composition and process for dissolving a sparingly water-soluble flavonoid” (San-Ei Chemical Industries, Ltd., priority 1989, dated 1992).
The name of at least one read-out is uncertain.

Conditions: in water at an ordinary temperature; cited from earlier work

## C[C@@H]1O[C@@H](OC[C@H]2O[C@@H](Oc3c(-c4ccc(O)c(O)c4)oc4cc(O)cc(O)c4c3=O)[C@H](O)[C@@H](O)[C@@H]2O)[C@H](O)[C@H](O)[C@H]1O [Rutin]
  solubility: about 0.008%
